Reference: PubChem BioAssay AID248 (DTP/NCI, 2004)
The list does not hold the whole screen: it is rich in T/C values a quarter to a half above the control, in often repeated tests (any T/C) and in doses without a T/C. Other doses and runs of a compound stand elsewhere. T/C is the treated group as % of the vehicle group. Some entries give survivors of the animals treated and no T/C: the source files T/C as zero there, which appears to mark a toxic dose or a test without result, not a measured value. Some survivor counts are full or nearly so, which does not show that the dose was tolerated: the source hardly ever lists a survival T/C far under the control, and the zero likely stands for such cases as well. Survivors were counted at the toxicity check, usually on the fifth day, unless a day is given; later deaths do not show. Schedule codes are those of the source, taken here to give the interval after Q, in days (D) or hours (H), and the number of doses after X. Some schedules carry Z or #; the key to these is not given. Some entries hold several experiments; their values stand side by side, smallest first. For survival time, the PubChem record calls one and a half times the control and up active, and a quarter to a half above the control has no call in these data; cut-offs in other NCI protocols can differ. Some T/C values carry the count of animals alive at the toxicity check (mostly the fifth day); without a count, all were alive then.

System: L1210 leukemia ip in BDF1 mice, survival T/C
Experiment: NCI In Vivo Anticancer Drug Screen. Data for tumor model L1210 Leukemia (intraperitoneal) in B6D2F1 (BDF1) mice
Conditions: T/C endpoint: mean survival time, higher T/C = longer survival
[1] = dose: 400.0 mg/kg/injection, schedule: Q04DX003 (ip), vehicle: saline with Tween-80
[2] = dose: 200.0 mg/kg/injection, schedule: Q04DX003 (ip), vehicle: saline with Tween-80
[3] = dose: 50.0 mg/kg/injection, schedule: Q04DX003 (ip), vehicle: saline with Tween-80
[4] = dose: 200.0 mg/kg/injection, schedule: Q01DX009 (ip), vehicle: Klucel (hydroxypropylcellulose) (HPC)
[5] = dose: 200.0 mg/kg/injection, schedule: Q04DX003 (ip), vehicle: Klucel (hydroxypropylcellulose) (HPC)
[6] = dose: 200.0 mg/kg/injection, schedule: Q04DX003 (ip), vehicle: saline
[7] = dose: 400.0 mg/kg/injection, schedule: Q04DX003 (ip), vehicle: saline

Structure (SMILES): CCCCN(CCCC)CCCCO
- survivor count [1]: 0 of 6

Structure (SMILES): COC(=O)/C=C1/Nc2cc(Cl)c(OC)cc2C(=O)NC1=O
- survivor count (dose: 300.0 mg/kg/injection, schedule: Q04DX003 (ip), vehicle: other): 5 of 6

Structure (SMILES): N#C/C=C/C#N
- survivor count [2]: 0 of 6
- survivor count [1]: 0 of 6

Structure (SMILES): CC(=O)Nc1ccn(C2OC(COC(C)=O)C(OC(C)=O)C2OC(C)=O)c(=O)n1 (stereo not drawn)
- T/C (dose: 37.0 mg/kg/injection, schedule: Q03HX024 (ip), vehicle: other): 125 % of control
- survivor count (dose: 50.0 mg/kg/injection, schedule: Q## X090 (ip), vehicle: carboxymethylcellulose (CMC)): 2 of 6
- survivor count (dose: 100.0 mg/kg/injection, schedule: Q## X090 (ip), vehicle: carboxymethylcellulose (CMC)): 5 of 6
- T/C (dose: 150.0 mg/kg/injection, schedule: Q01DX009 (ip), vehicle: other): 125 % of control
- T/C (dose: 178.0 mg/kg/injection, schedule: Q01DX Z (ip), vehicle: carboxymethylcellulose (CMC)): 127 % of control
- survivor count (dose: 200.0 mg/kg/injection, schedule: Q## X090 (ip), vehicle: carboxymethylcellulose (CMC)): 1 of 6
- T/C (dose: 250.0 mg/kg/injection, schedule: Q01DX009 (oral), vehicle: carboxymethylcellulose (CMC)): 126 % of control
- T/C (dose: 267.0 mg/kg/injection, schedule: Q01DX Z (ip), vehicle: carboxymethylcellulose (CMC)): 139 % of control
- T/C (dose: 267.0 mg/kg/injection, schedule: Q01DX Z (ip), vehicle: saline): 132 % of control
- T/C (dose: 300.0 mg/kg/injection, schedule: Q01DX009 (ip), vehicle: other): 142 and 144 % of control
- T/C (dose: 400.0 mg/kg/injection, schedule: Q01DX010 (oral), vehicle: carboxymethylcellulose (CMC)): 126 % of control
- survivor count (dose: 400.0 mg/kg/injection, schedule: Q## X090 (ip), vehicle: carboxymethylcellulose (CMC)): 3 of 6
- T/C (dose: 500.0 mg/kg/injection, schedule: Q01DX009 (oral), vehicle: carboxymethylcellulose (CMC)): 128 % of control
- T/C (dose: 500.0 mg/kg/injection, schedule: Q03HX024 (oral), vehicle: water): 128 % of control
- T/C (dose: 600.0 mg/kg/injection, schedule: Q04DX003 (ip), vehicle: other): 133 % of control
- T/C (dose: 800.0 mg/kg/injection, schedule: Q01DX010 (oral), vehicle: carboxymethylcellulose (CMC)): 143 % of control
- survivor count (dose: 800.0 mg/kg/injection, schedule: Q## X090 (ip), vehicle: carboxymethylcellulose (CMC)): 1 of 6
- T/C (dose: 1000.0 mg/kg/injection, schedule: Q01DX009 (oral), vehicle: carboxymethylcellulose (CMC)): 136 % of control
- survivor count (dose: 1600.0 mg/kg/injection, schedule: Q## X090 (ip), vehicle: carboxymethylcellulose (CMC)): 4 of 6
- T/C (dose: 2000.0 mg/kg/injection, schedule: Q01DX009 (oral), vehicle: carboxymethylcellulose (CMC)): 127 % of control [7 of 10 alive]
- T/C (dose: 2000.0 mg/kg/injection, schedule: Q03HX024 (oral), vehicle: carboxymethylcellulose (CMC)): 145 % of control

Structure (SMILES): CC(C)C1=CC23CCC4C(C)(C(=O)O)CCCC4(C)C2CC1C1(Cl)C(Cl)=C(Cl)C(Cl)(Cl)C31Cl (stereo not drawn)
- survivor count (dose: 300.0 mg/kg/injection, schedule: Q01DX001 (ip), vehicle: other): 3 of 6

Structure (SMILES): O=C(/C=C/c1ccc(Cl)c(Cl)c1)c1ccc(Cl)cc1
- survivor count [3]: 6 of 6
- survivor count [2]: 6 of 6
- survivor count [1]: 6 of 6

Structure (SMILES): Cc1[nH]c2cc(O)c(O)c(C)c2c1C
- survivor count (dose: 200.0 mg/kg/injection, schedule: Q01DX001 (ip), vehicle: saline): 0 of 4
- survivor count (dose: 400.0 mg/kg/injection, schedule: Q01DX001 (ip), vehicle: saline): 1 of 4

Structure (SMILES): CN(C)Cc1c(O)ccc2ccccc12
- survivor count (dose: 400.0 mg/kg/injection, schedule: Q04DX002 (ip), vehicle: saline with Tween-80): 0 of 3

Structure (SMILES): Cc1ccc(N=C=C(c2ccc(Cl)cc2)c2ccc(Cl)cc2)cc1
- survivor count (dose: 12.5 mg/kg/injection, schedule: Q01DX009 (ip), vehicle: DMSO): 0 of 3
- survivor count (dose: 25.0 mg/kg/injection, schedule: Q01DX009 (ip), vehicle: DMSO): 1 of 3
- survivor count (dose: 50.0 mg/kg/injection, schedule: Q04DX002 (ip), vehicle: DMSO): 0 of 3
- survivor count (dose: 100.0 mg/kg/injection, schedule: Q04DX002 (ip), vehicle: DMSO): 0 of 3
- survivor count (dose: 200.0 mg/kg/injection, schedule: Q04DX002 (ip), vehicle: DMSO): 0 of 3
- survivor count (dose: 400.0 mg/kg/injection, schedule: Q04DX002 (ip), vehicle: DMSO): 0 of 3

Structure (SMILES): NNC(=O)CNc1ccccc1Br
- survivor count (dose: 200.0 mg/kg/injection, schedule: Q04DX002 (ip), vehicle: Klucel (hydroxypropylcellulose) (HPC)): 0 of 3
- survivor count (dose: 400.0 mg/kg/injection, schedule: Q04DX002 (ip), vehicle: Klucel (hydroxypropylcellulose) (HPC)): 0 of 3

Structure (SMILES): CC(=O)OCc1c(C)[nH]c2ccc(N(C)C)cc2c1=O
- survivor count (dose: 400.0 mg/kg/injection, schedule: Q01DX009 (ip), vehicle: saline with Tween-80): 6 of 6

Structure (SMILES): CCC(C)C(CCN1CCCCC1)(CNC(=O)CN(CC)CC)Cc1cccc2ccccc12 (stereo not drawn)
- survivor count (dose: 100.0 mg/kg/injection, schedule: Q01DX009 (ip), vehicle: saline): 1 of 6
- survivor count (dose: 200.0 mg/kg/injection, schedule: Q01DX009 (ip), vehicle: saline): 0 of 6
- survivor count (dose: 400.0 mg/kg/injection, schedule: Q01DX009 (ip), vehicle: saline): 0 of 6

Structure (SMILES): O=[N+]([O-])c1ccc(N/N=C(\Oc2ccccc2)c2ccc([N+](=O)[O-])cc2)cc1
- survivor count [1]: 4 of 4

Structure (SMILES): CN(Cc1ccccc1O)C1CCCCC1
- survivor count (dose: 150.0 mg/kg/injection, schedule: Q01DX001 (ip), vehicle: saline): 3 of 6
- survivor count (dose: 300.0 mg/kg/injection, schedule: Q01DX001 (ip), vehicle: saline): 0 of 6

Structure (SMILES): CCCCCCCCCCC(=O)CCC
- survivor count [4]: 6 of 6
- survivor count [5]: 6 of 6

Structure (SMILES): CC(=O)OC1CC2CC1C1C3C=CC(C3)C21 (stereo not drawn)
- survivor count (dose: 100.0 mg/kg/injection, schedule: Q04DX003 (ip), vehicle: saline): 3 of 6
- survivor count [6]: 5 of 6
- survivor count [7]: 0 of 6

Structure (SMILES): N#CC(C#N)=C/C=C/c1cccc([N+](=O)[O-])c1
- survivor count (dose: 75.0 mg/kg/injection, schedule: Q01DX009 (ip), vehicle: saline): 3 of 6
- survivor count (dose: 150.0 mg/kg/injection, schedule: Q01DX009 (ip), vehicle: saline): 3 of 6
- survivor count (dose: 300.0 mg/kg/injection, schedule: Q01DX009 (ip), vehicle: saline): 0 of 6

Structure (SMILES): CCCC[P+](CCCC)(CCCC)Cc1ccc([N+](=O)[O-])cc1
- T/C (dose: 50.0 mg/kg/injection, schedule: Q01DX009 (ip), vehicle: Klucel (hydroxypropylcellulose) (HPC)): 129 % of control [2 of 3 alive]
- survivor count (dose: 100.0 mg/kg/injection, schedule: Q01DX009 (ip), vehicle: Klucel (hydroxypropylcellulose) (HPC)): 1 of 6 and 1 of 3
- survivor count [4]: 0 of 6
- survivor count (dose: 400.0 mg/kg/injection, schedule: Q01DX009 (ip), vehicle: Klucel (hydroxypropylcellulose) (HPC)): 0 of 6

Structure (SMILES): N#CSCSC#N
- survivor count (dose: 12.5 mg/kg/injection, schedule: Q04DX003 (ip), vehicle: saline with Tween-80): 4 of 6
- survivor count (dose: 25.0 mg/kg/injection, schedule: Q04DX003 (ip), vehicle: saline with Tween-80): 0 of 6
- survivor count [3]: 0 of 6
- survivor count (dose: 100.0 mg/kg/injection, schedule: Q04DX003 (ip), vehicle: saline with Tween-80): 0 of 6
- survivor count [2]: 0 of 6
- survivor count [1]: 0 of 6

Structure (SMILES): Cc1ccc(C)c(CN(C)C)c1O
- survivor count [4]: 0 of 6
- survivor count [5]: 6 of 6
- survivor count (dose: 400.0 mg/kg/injection, schedule: Q04DX003 (ip), vehicle: Klucel (hydroxypropylcellulose) (HPC)): 6 of 6

Structure (SMILES): Cn1cnc2c([N+](C)(C)C)ncnc21
- survivor count (dose: 135.0 mg/kg/injection, schedule: Q04DX003 (ip), vehicle: saline): 2 of 6
- T/C [6]: 137 % of control
- survivor count [6]: 0 of 6
- survivor count (dose: 300.0 mg/kg/injection, schedule: Q04DX003 (ip), vehicle: saline): 0 of 6
- survivor count [7]: 1 of 6 and 2 of 6
